Data taken from PubChem BioAssay (NCATS).
Where “and” joins values, the source holds several entries; their conditions need not be identical. Equal values may be shown once. Inconclusive results, whose numbers are uncertain, are shown with a selection of clear calls. Potencies beside an inconclusive call are fits to weak or partial responses and may not hold up. “Side channel” marks fits to a control or component signal instead of the main read-out. Calls of active or inactive are those of the source. Calls come from the whole dose curve.

target: Bile acid receptor (Homo sapiens) (UniProt Q96RI1); assay: qHTS assay for small molecule agonists of farnesoid X receptor signaling (AID 588527); conditions: HEK293T FXR-UAS-bla, beta-lactamase ratio, 16 h; activation: active compounds read high;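 for activation: series mostly up to about 77 µM; 0% = vehicle basal and 100% = reference agonist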
Source text: NIH Chemical Genomics Center [NCGC] U.S. Environmental Protection Agency [EPA] National Institutes of Environmental Health Sciences [NIEHS] National Toxicology Program [NTP] NCGC Assay Overview The farnesoid-X-receptor (FXR), a nuclear hormone receptor is highly expressed in liver, intestine, kidney and adrenal cortex. Natural ligands of FXR are the bile acids (Cholic acid, Chenodeoxy cholic acid etc). It is an important regulator of diverse metabolic pathways, including the bile acid homeostasis, lipid and glucose metabolisms. FXR regulates the expression of target genes by binding either as a monomer or as a heterodimer with RXR (retinoid X receptor). As FXR regulates a large number of target genes involved in bile acid, lipoprotein and glucose metabolisms, it is a potential pharmacological target for bile acid and lipid disorders. Thus screening environmental chemicals on FXR signaling can be used for the studies focused on metabolic syndrome, hepatic and intestinal toxicity etc.
NCGC Assay Protocol Summary Using a beta-lactamase reporter-gene under control of Farnesoid X receptor (FXR) response element, a cell-based assay [GeneBLAzer FXR-UAS-bla assay developed by Invitrogen] was used to measure FXR ligands signaling. GeneBLAzer FXR-UAS-bla HEK293T cells were used with assay medium containing 10% dialyzed FBS. The assay was performed in clear bottom black Greiner 1536-well plates. Chenodeoxycholic acid and Guggulsterone were used in the screen as agonist and antagonist positive controls respectively. Library compounds were measured for their ability to stimulate the reporter gene activity. Compounds were screened in a titration series in 1536-well format. […] Data was normalized relative to Chenodeoxycholic acid control (100 uM, 100%), and DMSO only wells (basal, 0%). Concentration-response titration points for each compound were fitted to the Hill equation yielding concentrations of half-maximal stimulation (EC50) and maximal response (efficacy) values. qHTS protocol for FXR beta-lactamase assay in agonist mode [Step] [Parameter] [Value] [Description] 1. Reagent; 6 uL; 5000 cells/well 2. Incubation; 37 C for 5-7 hrs 3. Compounds; 23 nL; 0.59 nM to 92 uM 4. Controls (Chenodeoxycholic acid); 23 nL, - One column with dose response, start 200 uM, 1:2 dilutions in duplicates - Final concentrations of 100 uM and 60 uM in two columns 5. Incubation; 37 C for 16 hrs 6. Detection reagent; 1 uL of CCF4-dye 7. Incubation; RT for 2 hrs 8. Detection; Fluorescence; Envision plate reader

Structure (SMILES) | Potency | activation
Nc1ccc(Sc2ccc(N)cc2)cc1 | inconclusive: 0.0025 µM [side channel, falling, full curve, poor fit] | inactive: -1.33%
C[C@]12CCC(=O)C=C1CC[C@@H]1[C@@H]2CC[C@@]2(C)[C@H]1CC[C@]2(C)O | inconclusive: 0.0158 µM [side channel, falling, full curve, poor fit] | 
Oc1cc(Cl)ccc1Oc1ccc(Cl)cc1Cl |  | inconclusive: 11.1%
[N-]=[N+]=CC(=O)OC[C@H](N)C(=O)O | inconclusive: 0.0025 µM [side channel, falling, full curve, poor fit] | 
CNC(=O)Oc1cccc2ccccc12 | inconclusive: 31.6 µM [side channel, rising, partial curve, poor fit] | 
O=C(CCl)c1ccc(Cl)cc1Cl |  | inconclusive: -5.85%
C[C@@H]1Cc2c(Cl)cc(C(=O)N[C@@H](Cc3ccccc3)C(=O)O)c(O)c2C(=O)O1 | active: 44.7 µM | 
C[C@]12CCC(=O)C=C1CC[C@@H]1[C@@H]2CC[C@]2(C)C(=O)CC[C@@H]12 |  | inconclusive: -3.71%
CN(C)C(=S)SSC(=S)N(C)C | inconclusive: 44.7 µM [side channel, rising, single point] | inactive: 3.15%
Clc1ccc(C(c2ccc(Cl)cc2)C(Cl)(Cl)Cl)cc1 | inconclusive: 0.002 µM [side channel, falling, full curve, poor fit] | 
Nc1nc(N)nc(NC2CC2)n1 | inconclusive: 0.005 µM [side channel, falling, full curve, poor fit] | 
COP(=S)(OC)SCN1C(=O)c2ccccc2C1=O | inconclusive: 0.0025 µM [side channel, falling, full curve, poor fit] | 
C[C@@H]1C[C@@H]([C@H](O)CC2CC(=O)NC(=O)C2)C(=O)[C@@H](C)C1 |  | inactive: 0.176% and inactive: -1.82% and inactive: 1.78%
c1cc2ccc3cccc4ccc(c1)c2c34 |  | inactive: -4.41% and inactive: -1.09%
Nc1ccc(Cl)cc1N | inconclusive: 0.0013 µM | inactive: 0.723%
Cc1cc2c(C(C)C)c(O)c(O)c(C=O)c2c(O)c1-c1c(C)cc2c(C(C)C)c(O)c(O)c(C=O)c2c1O | inconclusive: 50.1 µM [rising, single point] | 
COP(=O)(OC)C(O)C(Cl)(Cl)Cl (stereo not given) | inconclusive: 22.4 µM [side channel, falling, full curve, poor fit] | 
Cc1cc(O)ccc1Cl |  | inactive: 1.93%
[O]=[Cr](=[O])([OH])[O][Cr](=[O])(=[O])[OH] | inconclusive: 12.6 µM [side channel, rising, full curve, poor fit] | 
N[C@@H](Cc1ccc(N(CCCl)CCCl)cc1)C(=O)O | inconclusive: 15.8 µM [side channel, rising, full curve, poor fit] | 
Nc1ccccc1C(=O)O | inconclusive: 0.0891 µM [side channel, falling, full curve, poor fit] | 
C[CH2][Hg][S]c1ccccc1C(=O)O | inconclusive: 14.1 µM [side channel, rising, single point] | 

Part of the list above in order of formula weight, low to high:
Structure (SMILES) | Potency | activation
Nc1nc(N)nc(NC2CC2)n1 | inconclusive: 0.005 µM [side channel, falling, full curve, poor fit] | 
CN(C)C(=S)SSC(=S)N(C)C | inconclusive: 44.7 µM [side channel, rising, single point] | inactive: 3.15%
COP(=S)(OC)SCN1C(=O)c2ccccc2C1=O | inconclusive: 0.0025 µM [side channel, falling, full curve, poor fit] | 
